These are yes or no findings as the source states them, for the method shown. In cells and extracts the contact can be indirect. A yes stands for co-enrichment or nearness to the bait. Other partners may have been found.
Target: Flag-YY1 (Yin Yang 1), expressed in HCT116 cells (human) (UniProt P25490)
Assay: affinity purification with mass spectrometry; whole-cell extracts from HCT116 cells expressing Flag-YY1; isolated YY1 protein separated by SDS-PAGE, bands cut out, in-gel tryptic digestion, LC-MS/MS

Amino acid sequences for entries named in this document (tags omitted).
UniProt P25490: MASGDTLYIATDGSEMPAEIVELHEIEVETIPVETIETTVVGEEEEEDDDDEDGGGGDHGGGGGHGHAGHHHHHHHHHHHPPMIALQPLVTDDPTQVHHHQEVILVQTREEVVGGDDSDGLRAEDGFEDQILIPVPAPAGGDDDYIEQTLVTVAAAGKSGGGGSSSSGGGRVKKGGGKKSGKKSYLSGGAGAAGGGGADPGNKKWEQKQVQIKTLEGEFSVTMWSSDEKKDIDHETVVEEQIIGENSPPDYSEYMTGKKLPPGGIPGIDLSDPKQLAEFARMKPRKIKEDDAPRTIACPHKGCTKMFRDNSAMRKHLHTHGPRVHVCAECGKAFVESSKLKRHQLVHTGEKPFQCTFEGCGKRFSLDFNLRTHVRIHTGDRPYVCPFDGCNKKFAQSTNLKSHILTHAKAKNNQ
UniProt Q93009: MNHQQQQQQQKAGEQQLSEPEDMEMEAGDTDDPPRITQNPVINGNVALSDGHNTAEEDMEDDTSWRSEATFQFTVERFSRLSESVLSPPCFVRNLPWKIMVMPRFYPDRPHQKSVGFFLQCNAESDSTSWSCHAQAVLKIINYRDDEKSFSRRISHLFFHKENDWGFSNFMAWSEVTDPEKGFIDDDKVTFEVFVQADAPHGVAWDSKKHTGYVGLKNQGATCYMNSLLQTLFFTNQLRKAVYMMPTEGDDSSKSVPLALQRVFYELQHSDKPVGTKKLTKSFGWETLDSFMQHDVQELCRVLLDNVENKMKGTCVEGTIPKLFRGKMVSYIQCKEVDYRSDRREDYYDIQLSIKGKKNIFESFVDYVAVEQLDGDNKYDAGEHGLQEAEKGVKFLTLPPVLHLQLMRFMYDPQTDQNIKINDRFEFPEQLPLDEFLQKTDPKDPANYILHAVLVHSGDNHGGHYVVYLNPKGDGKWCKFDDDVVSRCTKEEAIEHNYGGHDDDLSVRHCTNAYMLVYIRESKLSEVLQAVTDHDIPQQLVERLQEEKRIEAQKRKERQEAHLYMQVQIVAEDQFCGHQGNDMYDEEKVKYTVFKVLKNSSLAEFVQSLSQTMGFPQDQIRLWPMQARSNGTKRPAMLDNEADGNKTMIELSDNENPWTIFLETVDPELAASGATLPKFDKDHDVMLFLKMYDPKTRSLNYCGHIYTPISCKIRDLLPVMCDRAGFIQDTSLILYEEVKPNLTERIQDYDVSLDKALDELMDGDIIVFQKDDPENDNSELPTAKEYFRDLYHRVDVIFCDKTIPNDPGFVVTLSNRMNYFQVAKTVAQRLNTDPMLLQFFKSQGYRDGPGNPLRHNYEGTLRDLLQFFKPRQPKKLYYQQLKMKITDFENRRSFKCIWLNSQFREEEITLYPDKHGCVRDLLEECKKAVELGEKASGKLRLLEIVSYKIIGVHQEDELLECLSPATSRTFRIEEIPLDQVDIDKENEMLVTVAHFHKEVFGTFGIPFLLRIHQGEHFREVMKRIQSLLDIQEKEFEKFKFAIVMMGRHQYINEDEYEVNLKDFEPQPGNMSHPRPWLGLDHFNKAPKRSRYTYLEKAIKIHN

In the case of “Ubiquitin-specific protease 7 (USP7), endogenous in CRC cells (from UniProt Q93009 1-1102) (enzyme)”, the binding was “binds”.
